Measured values: publication doi:10.1101/2025.06.27.661974 (bioRxiv, 2025)
No constants are given. Whether binding was seen depends on the method and setting. Binding seen in cells or lysates may run through a third protein. Some entries that bind do so weakly or less than the wild type.

Tests used:
Assay in all cases: co-IP
hUBE2O H1130A (human) = target: T1, hUBE2O H1130A (human) (UniProt Q9C0C9)
T1 sequence: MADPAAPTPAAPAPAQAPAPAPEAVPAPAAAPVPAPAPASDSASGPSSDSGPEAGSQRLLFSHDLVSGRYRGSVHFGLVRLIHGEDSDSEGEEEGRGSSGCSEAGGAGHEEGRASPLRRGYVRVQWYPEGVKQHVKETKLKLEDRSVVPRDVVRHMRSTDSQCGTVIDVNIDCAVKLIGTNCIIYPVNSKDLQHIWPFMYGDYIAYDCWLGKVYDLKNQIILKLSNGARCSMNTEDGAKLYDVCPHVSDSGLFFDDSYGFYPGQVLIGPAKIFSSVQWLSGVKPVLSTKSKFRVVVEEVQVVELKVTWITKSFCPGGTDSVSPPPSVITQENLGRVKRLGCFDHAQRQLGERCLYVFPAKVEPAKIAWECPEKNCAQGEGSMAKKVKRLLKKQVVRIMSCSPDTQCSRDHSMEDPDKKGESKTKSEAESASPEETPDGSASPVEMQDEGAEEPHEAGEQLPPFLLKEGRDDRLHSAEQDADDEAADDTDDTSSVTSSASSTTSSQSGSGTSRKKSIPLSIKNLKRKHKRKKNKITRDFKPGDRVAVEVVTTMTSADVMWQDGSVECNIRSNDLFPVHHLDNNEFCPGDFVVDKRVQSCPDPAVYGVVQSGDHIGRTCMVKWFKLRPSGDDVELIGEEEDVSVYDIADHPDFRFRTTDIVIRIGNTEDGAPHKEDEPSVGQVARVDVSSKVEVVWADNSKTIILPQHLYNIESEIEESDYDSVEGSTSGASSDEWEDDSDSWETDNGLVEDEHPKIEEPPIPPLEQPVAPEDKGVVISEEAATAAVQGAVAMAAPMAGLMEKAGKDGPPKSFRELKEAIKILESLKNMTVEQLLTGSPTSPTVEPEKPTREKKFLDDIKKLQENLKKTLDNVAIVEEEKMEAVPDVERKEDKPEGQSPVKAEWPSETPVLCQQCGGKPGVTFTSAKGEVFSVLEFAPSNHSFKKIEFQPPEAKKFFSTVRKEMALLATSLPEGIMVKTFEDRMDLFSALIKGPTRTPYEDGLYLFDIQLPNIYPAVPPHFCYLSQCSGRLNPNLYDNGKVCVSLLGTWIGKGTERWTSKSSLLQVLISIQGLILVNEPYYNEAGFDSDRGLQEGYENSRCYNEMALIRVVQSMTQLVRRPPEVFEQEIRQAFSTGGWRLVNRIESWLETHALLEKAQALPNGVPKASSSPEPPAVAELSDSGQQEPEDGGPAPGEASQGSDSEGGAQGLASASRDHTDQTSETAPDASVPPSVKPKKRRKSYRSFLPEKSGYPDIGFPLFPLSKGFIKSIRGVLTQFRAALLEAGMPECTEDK

hUBE2O H939A (human) = target: T2, hUBE2O H939A (human) (UniProt Q9C0C9)
T2 sequence: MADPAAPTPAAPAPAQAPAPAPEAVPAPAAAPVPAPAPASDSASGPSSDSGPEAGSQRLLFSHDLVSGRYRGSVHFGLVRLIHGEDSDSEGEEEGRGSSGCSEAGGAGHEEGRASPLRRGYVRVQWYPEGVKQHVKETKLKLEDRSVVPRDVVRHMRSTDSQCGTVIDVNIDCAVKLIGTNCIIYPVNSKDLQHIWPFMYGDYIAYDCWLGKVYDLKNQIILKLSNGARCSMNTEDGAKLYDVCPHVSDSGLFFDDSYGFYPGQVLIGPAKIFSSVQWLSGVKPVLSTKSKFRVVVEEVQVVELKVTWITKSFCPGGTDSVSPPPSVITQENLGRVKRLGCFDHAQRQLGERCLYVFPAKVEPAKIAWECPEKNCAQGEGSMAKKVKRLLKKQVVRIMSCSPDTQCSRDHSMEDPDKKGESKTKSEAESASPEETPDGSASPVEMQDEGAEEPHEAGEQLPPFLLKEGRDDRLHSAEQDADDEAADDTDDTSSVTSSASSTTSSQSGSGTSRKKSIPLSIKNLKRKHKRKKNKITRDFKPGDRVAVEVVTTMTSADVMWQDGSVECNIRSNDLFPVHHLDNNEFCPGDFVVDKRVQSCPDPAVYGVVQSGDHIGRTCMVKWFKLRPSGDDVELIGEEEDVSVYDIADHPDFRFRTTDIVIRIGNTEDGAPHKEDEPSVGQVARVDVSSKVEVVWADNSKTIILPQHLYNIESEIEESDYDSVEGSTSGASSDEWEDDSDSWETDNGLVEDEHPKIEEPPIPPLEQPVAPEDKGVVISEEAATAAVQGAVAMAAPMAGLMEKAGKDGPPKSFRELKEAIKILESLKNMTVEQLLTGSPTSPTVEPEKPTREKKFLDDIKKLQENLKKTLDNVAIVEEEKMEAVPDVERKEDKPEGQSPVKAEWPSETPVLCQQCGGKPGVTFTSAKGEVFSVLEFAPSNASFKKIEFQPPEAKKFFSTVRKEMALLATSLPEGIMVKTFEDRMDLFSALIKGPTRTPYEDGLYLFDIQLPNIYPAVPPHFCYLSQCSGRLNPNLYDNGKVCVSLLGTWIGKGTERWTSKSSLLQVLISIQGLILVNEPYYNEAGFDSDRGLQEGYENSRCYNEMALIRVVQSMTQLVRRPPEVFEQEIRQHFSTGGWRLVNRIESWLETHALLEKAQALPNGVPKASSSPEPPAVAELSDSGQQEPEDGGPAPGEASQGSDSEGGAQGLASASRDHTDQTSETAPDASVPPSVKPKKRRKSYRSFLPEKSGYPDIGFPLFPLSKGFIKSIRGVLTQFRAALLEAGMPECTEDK

hUBE2O T995A (human) = target: T3, hUBE2O T995A (human) (UniProt Q9C0C9)
T3 sequence: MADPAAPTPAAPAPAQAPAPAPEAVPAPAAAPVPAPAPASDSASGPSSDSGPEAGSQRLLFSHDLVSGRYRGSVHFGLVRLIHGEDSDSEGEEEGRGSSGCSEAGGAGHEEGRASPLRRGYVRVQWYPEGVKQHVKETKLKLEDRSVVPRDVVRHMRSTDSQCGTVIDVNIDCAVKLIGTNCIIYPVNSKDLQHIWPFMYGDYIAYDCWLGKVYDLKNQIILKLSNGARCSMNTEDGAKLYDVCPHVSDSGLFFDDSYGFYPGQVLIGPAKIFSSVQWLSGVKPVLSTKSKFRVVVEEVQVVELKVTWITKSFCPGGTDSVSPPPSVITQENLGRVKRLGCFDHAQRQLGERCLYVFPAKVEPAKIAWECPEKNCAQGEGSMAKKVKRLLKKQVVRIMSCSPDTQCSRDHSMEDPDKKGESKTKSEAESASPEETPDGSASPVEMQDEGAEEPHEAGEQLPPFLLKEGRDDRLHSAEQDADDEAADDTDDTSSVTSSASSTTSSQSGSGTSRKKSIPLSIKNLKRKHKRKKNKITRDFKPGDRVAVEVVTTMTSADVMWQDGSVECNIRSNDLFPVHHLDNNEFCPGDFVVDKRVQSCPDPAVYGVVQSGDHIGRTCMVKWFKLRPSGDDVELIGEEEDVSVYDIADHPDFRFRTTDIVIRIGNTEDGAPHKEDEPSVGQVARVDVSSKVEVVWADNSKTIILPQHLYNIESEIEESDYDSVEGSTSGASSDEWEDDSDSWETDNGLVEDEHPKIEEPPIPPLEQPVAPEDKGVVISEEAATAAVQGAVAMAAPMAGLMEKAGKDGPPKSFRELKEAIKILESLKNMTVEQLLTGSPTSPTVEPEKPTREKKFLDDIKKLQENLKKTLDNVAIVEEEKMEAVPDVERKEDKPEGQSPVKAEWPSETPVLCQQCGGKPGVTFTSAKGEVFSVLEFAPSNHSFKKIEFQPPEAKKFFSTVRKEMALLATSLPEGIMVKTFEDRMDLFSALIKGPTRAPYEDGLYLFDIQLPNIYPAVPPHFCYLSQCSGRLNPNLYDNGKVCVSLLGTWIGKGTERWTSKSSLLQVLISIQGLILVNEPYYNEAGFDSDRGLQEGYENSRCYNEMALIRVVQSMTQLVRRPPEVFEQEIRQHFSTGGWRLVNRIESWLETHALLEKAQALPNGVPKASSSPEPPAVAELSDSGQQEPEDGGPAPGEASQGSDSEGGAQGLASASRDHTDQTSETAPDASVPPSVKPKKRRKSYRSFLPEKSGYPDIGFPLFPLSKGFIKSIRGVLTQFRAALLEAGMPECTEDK

Measured: binding

B1: Flag-UBE2O-TwinStrep (recombinant Homo sapiens UBE2O, purified) (enzyme, human, UniProt Q9C0C9 1-1292, looked up)
chain: MADPAAPTPAAPAPAQAPAPAPEAVPAPAAAPVPAPAPASDSASGPSSDSGPEAGSQRLLFSHDLVSGRYRGSVHFGLVRLIHGEDSDSEGEEEGRGSSGCSEAGGAGHEEGRASPLRRGYVRVQWYPEGVKQHVKETKLKLEDRSVVPRDVVRHMRSTDSQCGTVIDVNIDCAVKLIGTNCIIYPVNSKDLQHIWPFMYGDYIAYDCWLGKVYDLKNQIILKLSNGARCSMNTEDGAKLYDVCPHVSDSGLFFDDSYGFYPGQVLIGPAKIFSSVQWLSGVKPVLSTKSKFRVVVEEVQVVELKVTWITKSFCPGGTDSVSPPPSVITQENLGRVKRLGCFDHAQRQLGERCLYVFPAKVEPAKIAWECPEKNCAQGEGSMAKKVKRLLKKQVVRIMSCSPDTQCSRDHSMEDPDKKGESKTKSEAESASPEETPDGSASPVEMQDEGAEEPHEAGEQLPPFLLKEGRDDRLHSAEQDADDEAADDTDDTSSVTSSASSTTSSQSGSGTSRKKSIPLSIKNLKRKHKRKKNKITRDFKPGDRVAVEVVTTMTSADVMWQDGSVECNIRSNDLFPVHHLDNNEFCPGDFVVDKRVQSCPDPAVYGVVQSGDHIGRTCMVKWFKLRPSGDDVELIGEEEDVSVYDIADHPDFRFRTTDIVIRIGNTEDGAPHKEDEPSVGQVARVDVSSKVEVVWADNSKTIILPQHLYNIESEIEESDYDSVEGSTSGASSDEWEDDSDSWETDNGLVEDEHPKIEEPPIPPLEQPVAPEDKGVVISEEAATAAVQGAVAMAAPMAGLMEKAGKDGPPKSFRELKEAIKILESLKNMTVEQLLTGSPTSPTVEPEKPTREKKFLDDIKKLQENLKKTLDNVAIVEEEKMEAVPDVERKEDKPEGQSPVKAEWPSETPVLCQQCGGKPGVTFTSAKGEVFSVLEFAPSNHSFKKIEFQPPEAKKFFSTVRKEMALLATSLPEGIMVKTFEDRMDLFSALIKGPTRTPYEDGLYLFDIQLPNIYPAVPPHFCYLSQCSGRLNPNLYDNGKVCVSLLGTWIGKGTERWTSKSSLLQVLISIQGLILVNEPYYNEAGFDSDRGLQEGYENSRCYNEMALIRVVQSMTQLVRRPPEVFEQEIRQHFSTGGWRLVNRIESWLETHALLEKAQALPNGVPKASSSPEPPAVAELSDSGQQEPEDGGPAPGEASQGSDSEGGAQGLASASRDHTDQTSETAPDASVPPSVKPKKRRKSYRSFLPEKSGYPDIGFPLFPLSKGFIKSIRGVLTQFRAALLEAGMPECTEDK
binds: hUBE2O H1130A (human) | hUBE2O H939A (human) | hUBE2O T995A (human)
